Results are given in words; binding and its absence hold for the method and conditions named. In cells and extracts the contact can be indirect. Some entries that bind do so weakly or less than the wild type.
Target: cellular prion protein (PrP^C), endogenous in N2a cells (mouse (endogenous in N2a)) (UniProt P04925)
Assay: pull-down

B1: calnexin, endogenous in N2a cells (protein, UniProt P35564 21-591)
chain: HDGHDDDAIDIEDDLDDVIEEVEDSKSKSDASTPPSPKVTYKAPVPTGEVYFADSFDRGSLSGWILSKAKKDDTDDEIAKYDGKWEVDEMKETKLPGDKGLVLMSRAKHHAISAKLNKPFLFDTKPLIVQYEVNFQNGIECGGAYVKLLSKTAELSLDQFHDKTPYTIMFGPDKCGEDYKLHFIFRHKNPKTGVYEEKHAKRPDADLKTYFTDKKTHLYTLILNPDNSFEILVDQSVVNSGNLLNDMTPPVNPSREIEDPEDRKPEDWDERPKIADPDAVKPDDWDEDAPSKIPDEEATKPEGWLDDEPEYIPDPDAEKPEDWDEDMDGEWEAPQIANPKCESAPGCGVWQRPMIDNPNYKGKWKPPMIDNPNYQGIWKPRKIPNPDFFEDLEPFKMTPFSAIGLELWSMTSDIFFDNFIISGDRRVVDDWANDGWGLKKAADGAAEPGVVLQMLEAAEERPWLWVVYILTVALPVFLVILFCCSGKKQSNAMEYKKTDAPQPDVKDEEGKEEEKNKRDEEEEEEKLEEKQKSDAEEDGVTGSQDEEDSKPKAEEDEILNRSPRNRKPRRE
binding: binds

— PMC8704586
